Experimental findings from the supplement of paper PMC12819154, “High-throughput peptide-centric local stability assay extends protein–ligand identification to membrane proteins, tissues and bacteria” (Nature Structural & Molecular Biology, 2025) are described below.

Sequences of proteins named here, by UniProt entry; tags and fusion partners are left off. A change or cut given only in a name is not applied to a line headed by its entry.
UniProt Q8C2A2: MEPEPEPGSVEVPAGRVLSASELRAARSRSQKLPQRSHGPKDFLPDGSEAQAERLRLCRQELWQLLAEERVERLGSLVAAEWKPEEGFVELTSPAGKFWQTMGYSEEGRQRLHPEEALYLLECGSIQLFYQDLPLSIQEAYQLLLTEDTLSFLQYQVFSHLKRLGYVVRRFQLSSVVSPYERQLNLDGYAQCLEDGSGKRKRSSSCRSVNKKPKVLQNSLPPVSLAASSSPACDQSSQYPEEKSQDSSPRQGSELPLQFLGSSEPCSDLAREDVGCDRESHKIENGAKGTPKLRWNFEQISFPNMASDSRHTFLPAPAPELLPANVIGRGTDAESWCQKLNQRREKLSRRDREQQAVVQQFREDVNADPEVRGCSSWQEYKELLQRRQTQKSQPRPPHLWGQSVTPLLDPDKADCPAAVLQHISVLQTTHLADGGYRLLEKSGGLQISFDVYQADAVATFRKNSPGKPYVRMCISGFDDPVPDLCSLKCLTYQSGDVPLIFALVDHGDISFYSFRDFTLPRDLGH
UniProt Q8C729: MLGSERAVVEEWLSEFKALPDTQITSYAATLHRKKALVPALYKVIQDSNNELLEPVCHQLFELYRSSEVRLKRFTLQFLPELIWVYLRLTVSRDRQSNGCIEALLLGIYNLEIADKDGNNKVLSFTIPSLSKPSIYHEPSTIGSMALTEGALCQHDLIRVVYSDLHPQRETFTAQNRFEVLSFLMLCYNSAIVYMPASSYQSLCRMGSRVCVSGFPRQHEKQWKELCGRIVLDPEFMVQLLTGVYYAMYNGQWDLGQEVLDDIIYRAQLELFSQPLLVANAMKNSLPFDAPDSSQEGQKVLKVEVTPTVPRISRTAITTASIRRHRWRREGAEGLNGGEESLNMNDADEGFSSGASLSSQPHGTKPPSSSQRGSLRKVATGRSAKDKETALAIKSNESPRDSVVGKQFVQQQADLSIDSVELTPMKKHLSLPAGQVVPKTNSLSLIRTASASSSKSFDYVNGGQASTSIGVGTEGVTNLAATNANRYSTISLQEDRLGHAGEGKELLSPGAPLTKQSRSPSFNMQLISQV
UniProt Q8CAF4: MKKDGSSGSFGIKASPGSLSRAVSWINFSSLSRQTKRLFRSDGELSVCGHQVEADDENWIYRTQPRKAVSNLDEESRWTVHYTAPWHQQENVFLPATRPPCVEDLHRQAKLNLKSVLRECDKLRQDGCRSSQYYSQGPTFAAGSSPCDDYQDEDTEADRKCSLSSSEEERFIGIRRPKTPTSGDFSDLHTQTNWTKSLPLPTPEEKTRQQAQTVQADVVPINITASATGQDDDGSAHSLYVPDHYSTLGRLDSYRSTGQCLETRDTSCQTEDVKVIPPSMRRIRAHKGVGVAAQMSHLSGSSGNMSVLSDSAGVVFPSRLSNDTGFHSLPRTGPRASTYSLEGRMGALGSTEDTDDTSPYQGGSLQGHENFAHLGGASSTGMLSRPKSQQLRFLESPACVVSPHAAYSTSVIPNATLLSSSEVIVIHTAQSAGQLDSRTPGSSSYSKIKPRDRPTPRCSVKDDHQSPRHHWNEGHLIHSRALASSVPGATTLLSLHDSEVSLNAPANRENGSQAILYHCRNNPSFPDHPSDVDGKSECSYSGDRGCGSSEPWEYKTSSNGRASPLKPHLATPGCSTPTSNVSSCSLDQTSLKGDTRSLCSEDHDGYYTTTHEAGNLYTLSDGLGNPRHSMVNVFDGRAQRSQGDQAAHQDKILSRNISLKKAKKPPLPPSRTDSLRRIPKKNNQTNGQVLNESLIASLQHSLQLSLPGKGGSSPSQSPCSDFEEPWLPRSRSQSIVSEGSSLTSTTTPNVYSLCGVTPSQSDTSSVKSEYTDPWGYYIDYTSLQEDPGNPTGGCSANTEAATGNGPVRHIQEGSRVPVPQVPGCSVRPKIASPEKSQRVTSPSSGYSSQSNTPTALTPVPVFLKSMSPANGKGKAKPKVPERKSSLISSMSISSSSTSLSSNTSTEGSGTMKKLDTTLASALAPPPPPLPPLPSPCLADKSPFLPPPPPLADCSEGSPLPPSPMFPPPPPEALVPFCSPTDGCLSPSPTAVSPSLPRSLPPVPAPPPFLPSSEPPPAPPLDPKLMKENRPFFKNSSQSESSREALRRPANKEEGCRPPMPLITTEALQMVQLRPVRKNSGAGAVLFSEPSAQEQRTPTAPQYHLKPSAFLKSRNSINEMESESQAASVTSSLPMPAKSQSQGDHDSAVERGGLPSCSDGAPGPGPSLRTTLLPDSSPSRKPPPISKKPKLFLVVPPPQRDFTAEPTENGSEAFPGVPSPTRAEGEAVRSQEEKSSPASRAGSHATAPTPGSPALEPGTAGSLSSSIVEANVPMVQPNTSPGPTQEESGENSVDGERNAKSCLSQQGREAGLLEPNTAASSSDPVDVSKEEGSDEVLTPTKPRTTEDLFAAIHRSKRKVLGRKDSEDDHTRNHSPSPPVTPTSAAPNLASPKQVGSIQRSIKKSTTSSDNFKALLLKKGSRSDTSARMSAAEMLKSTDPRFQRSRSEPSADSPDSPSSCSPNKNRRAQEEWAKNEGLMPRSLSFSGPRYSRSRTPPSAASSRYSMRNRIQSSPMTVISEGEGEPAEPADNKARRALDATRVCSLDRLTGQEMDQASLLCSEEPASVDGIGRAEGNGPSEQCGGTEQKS
UniProt Q8C010: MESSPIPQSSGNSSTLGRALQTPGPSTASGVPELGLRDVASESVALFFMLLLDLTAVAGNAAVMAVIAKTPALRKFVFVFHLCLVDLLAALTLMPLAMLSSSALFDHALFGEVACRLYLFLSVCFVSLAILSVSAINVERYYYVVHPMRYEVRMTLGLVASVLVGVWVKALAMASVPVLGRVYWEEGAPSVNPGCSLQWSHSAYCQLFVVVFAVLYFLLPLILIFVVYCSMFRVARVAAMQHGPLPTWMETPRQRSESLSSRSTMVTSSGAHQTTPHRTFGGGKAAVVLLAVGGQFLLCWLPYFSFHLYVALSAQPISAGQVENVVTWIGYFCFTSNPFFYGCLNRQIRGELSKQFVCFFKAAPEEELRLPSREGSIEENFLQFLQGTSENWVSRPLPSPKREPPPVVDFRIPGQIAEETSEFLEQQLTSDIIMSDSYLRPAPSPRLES
UniProt Q8C0Y0: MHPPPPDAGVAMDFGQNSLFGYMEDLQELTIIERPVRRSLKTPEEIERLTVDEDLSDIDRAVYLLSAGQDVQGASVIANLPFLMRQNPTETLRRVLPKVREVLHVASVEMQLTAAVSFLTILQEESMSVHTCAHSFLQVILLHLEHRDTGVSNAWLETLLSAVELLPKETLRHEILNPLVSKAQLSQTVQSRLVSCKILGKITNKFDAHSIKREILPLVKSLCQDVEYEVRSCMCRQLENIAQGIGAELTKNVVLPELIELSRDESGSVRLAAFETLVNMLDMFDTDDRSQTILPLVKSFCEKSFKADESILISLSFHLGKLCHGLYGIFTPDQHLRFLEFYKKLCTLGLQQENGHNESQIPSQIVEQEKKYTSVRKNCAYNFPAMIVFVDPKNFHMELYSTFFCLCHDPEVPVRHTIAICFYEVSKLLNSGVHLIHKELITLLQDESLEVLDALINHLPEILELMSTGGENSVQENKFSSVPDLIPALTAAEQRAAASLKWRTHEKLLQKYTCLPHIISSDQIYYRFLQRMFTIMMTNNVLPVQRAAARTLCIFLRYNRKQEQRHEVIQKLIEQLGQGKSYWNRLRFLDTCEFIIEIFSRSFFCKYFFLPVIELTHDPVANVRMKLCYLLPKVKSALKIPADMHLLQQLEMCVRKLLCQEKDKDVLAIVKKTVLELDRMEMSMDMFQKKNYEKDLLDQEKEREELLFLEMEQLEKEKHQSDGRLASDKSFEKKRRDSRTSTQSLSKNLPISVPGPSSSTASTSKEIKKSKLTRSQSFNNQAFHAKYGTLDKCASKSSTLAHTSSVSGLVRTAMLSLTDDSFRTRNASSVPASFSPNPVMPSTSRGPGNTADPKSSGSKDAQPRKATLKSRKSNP
UniProt Q8BWF2: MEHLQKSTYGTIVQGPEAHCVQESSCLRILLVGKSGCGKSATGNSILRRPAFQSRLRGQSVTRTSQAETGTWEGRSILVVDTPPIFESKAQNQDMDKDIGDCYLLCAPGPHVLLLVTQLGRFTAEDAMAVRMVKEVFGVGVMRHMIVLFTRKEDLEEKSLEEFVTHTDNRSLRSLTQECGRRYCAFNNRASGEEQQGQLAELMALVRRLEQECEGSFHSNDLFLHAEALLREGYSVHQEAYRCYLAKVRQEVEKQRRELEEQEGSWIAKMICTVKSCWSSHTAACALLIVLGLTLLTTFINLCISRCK
UniProt Q8BZ32: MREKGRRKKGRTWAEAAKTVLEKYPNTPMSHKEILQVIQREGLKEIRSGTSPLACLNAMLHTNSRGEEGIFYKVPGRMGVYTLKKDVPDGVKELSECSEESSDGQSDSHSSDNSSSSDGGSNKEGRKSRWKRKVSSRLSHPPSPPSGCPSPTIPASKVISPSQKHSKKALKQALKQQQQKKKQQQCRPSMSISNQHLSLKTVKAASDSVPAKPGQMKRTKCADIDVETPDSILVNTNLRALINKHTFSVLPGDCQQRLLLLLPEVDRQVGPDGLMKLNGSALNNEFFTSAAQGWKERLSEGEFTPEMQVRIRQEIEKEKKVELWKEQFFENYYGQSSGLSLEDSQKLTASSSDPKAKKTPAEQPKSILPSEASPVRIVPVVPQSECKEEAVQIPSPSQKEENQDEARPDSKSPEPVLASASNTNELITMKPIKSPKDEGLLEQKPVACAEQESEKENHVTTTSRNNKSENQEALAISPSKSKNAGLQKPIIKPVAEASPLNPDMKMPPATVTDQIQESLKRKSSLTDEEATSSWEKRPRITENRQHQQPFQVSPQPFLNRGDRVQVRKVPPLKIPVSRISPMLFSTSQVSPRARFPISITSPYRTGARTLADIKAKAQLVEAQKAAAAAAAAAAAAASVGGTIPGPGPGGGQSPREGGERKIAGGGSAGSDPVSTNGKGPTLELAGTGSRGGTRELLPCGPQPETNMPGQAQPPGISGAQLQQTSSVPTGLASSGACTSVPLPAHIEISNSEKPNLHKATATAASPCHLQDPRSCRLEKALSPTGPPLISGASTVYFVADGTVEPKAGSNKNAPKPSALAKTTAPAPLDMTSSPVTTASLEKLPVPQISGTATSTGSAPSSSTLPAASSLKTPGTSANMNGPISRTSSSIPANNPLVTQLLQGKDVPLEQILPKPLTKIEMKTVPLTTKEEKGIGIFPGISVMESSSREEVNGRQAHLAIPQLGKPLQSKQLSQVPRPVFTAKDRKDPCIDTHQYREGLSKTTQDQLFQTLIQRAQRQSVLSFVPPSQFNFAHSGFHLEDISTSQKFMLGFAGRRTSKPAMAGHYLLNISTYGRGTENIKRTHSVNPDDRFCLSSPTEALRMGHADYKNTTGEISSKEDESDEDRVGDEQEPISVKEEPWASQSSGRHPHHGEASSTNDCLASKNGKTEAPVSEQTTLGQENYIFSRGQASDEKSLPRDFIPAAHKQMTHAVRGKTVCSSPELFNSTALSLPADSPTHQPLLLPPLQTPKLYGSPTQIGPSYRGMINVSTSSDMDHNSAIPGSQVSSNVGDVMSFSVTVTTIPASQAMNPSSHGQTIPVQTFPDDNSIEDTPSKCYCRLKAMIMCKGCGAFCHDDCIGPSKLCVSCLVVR
UniProt Q8C1Z8: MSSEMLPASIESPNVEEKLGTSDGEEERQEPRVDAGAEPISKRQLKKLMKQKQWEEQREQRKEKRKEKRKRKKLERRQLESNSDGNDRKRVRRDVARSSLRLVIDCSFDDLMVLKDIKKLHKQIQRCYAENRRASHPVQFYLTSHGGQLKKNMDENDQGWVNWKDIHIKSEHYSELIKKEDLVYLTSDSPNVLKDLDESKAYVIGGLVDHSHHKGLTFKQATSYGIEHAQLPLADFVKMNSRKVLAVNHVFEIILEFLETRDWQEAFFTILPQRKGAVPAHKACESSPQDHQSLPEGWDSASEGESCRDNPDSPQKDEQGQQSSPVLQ
UniProt Q8C5H8: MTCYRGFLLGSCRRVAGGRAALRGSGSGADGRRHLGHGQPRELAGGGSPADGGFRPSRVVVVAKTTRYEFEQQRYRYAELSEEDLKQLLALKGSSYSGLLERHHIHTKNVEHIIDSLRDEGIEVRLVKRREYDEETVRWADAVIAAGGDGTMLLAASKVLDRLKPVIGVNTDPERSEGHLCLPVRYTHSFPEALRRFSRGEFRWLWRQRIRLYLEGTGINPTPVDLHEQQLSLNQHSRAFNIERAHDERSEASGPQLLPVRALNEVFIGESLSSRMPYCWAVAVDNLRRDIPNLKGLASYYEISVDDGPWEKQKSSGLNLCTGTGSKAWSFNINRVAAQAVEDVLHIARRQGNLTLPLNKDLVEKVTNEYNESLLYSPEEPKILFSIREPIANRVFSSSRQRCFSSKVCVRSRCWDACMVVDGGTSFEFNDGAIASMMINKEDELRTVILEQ
UniProt Q8C6I2: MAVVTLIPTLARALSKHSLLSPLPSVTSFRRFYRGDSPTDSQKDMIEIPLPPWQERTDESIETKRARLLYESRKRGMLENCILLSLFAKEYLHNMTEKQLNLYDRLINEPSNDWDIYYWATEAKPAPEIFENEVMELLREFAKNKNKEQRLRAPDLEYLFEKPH

The list shows a part of the results. Small differences around the control level are noise.

Compound in this assay: CN[C@@H]1C[C@H]2O[C@@](C)([C@@H]1OC)n1c3ccccc3c3c4c(c5c6ccccc6n2c5c31)C(=O)NC4 [staurosporine]
The assay can be described thus: log2 fold change of tryptic peptide abundance, ligand vs vehicle (limited proteolysis) (log2 ratio); higher = more trypsin-susceptible (destabilized). The note with it: ligand concentration: 20 uM; sample: mouse liver crude lysate; replicate design: treated separately.
For the target “UniProt Q8C2A2 (peptide sequence: SHGPKDFLPDGSEAQAER, peptide start residue: 37)”, the log2 fold change was found to be 0.554.

Take “UniProt Q8BVW0 (peptide sequence: LKINEETPLK, peptide start residue: 84)”: the log2 fold change was -0.202.

Regarding “UniProt Q8C569 (peptide sequence: EGQLNGSSAAHGEIR, peptide start residue: 333)”, the log2 fold change was 0.373.

For “UniProt Q8C729 (peptide sequence: VEVTPTVPR, peptide start residue: 303)”, the log2 fold change is -0.26.

“UniProt Q8BZS9 (peptide sequence: DQDVCDKCPDATEQR, peptide start residue: 726)”: the log2 fold change was 0.877.

Consider “UniProt Q8C3B8 (peptide sequence: GSQEVLGQAAR, peptide start residue: 2)”, for which the log2 fold change turned out to be 0.525.

For “UniProt Q8C0P7 (peptide sequence: ESSAEDCIVPTK, peptide start residue: 432)”, the log2 fold change was -0.321.

Regarding “UniProt Q8CAF4 (peptide sequence: LSNDTGFHSLPR, peptide start residue: 320)”, the log2 fold change was -0.267.

As to “UniProt Q8BZ21 (peptide sequence: YANPIGRPK, peptide start residue: 331)”, the log2 fold change came out at 0.46.

Take “UniProt Q8C3X4 (peptide sequence: VFDIPSEECIKISAK, peptide start residue: 195)”: the log2 fold change was -0.39.

As for “UniProt Q8C3P7 (peptide sequence: NPEAALSPTFR, peptide start residue: 37)”, the log2 fold change turned out to be 0.118.

Regarding “UniProt Q8CA72 (peptide sequence: KIGCYAAMK, peptide start residue: 412)”, the log2 fold change came to 0.388.

Consider “UniProt Q8C010 (peptide sequence: QIRGELSK, peptide start residue: 347)”, for which the log2 fold change was -0.0866.

For “UniProt Q8C172 (peptide sequence: VFTAITKHPDEK, peptide start residue: 86)”, the log2 fold change is 0.00399.

As to “UniProt Q8BWY7 (peptide sequence: ENGEVYQR, peptide start residue: 154)”, the log2 fold change was -0.0823.

For “UniProt Q8C0Y0 (peptide sequence: YGTLDKCASK, peptide start residue: 787)”, the log2 fold change was -0.563.

On to “UniProt Q8BZ00 (peptide sequence: MWYGFDHK, peptide start residue: 527)”, for which the log2 fold change came to 0.145.

On to “UniProt Q8C267 (peptide sequence: QVLEVPGKK, peptide start residue: 581)”, for which the log2 fold change is -0.289.

Consider “UniProt Q8BZ03 (peptide sequence: YITHESDDAR, peptide start residue: 828)”, for which the log2 fold change was -0.402.

Turning to “UniProt Q8BWF2 (peptide sequence: KEDLEEK, peptide start residue: 152)”, the log2 fold change is -0.0337.

For the target “UniProt Q8C6E0 (peptide sequence: VHFANQSVQPLAR, peptide start residue: 217)”, the log2 fold change was -0.129.

“UniProt Q8CAK1 (peptide sequence: AAYAHFLNVQGR, peptide start residue: 94)”: the log2 fold change was -0.643.

For “UniProt Q8BZM1 (peptide sequence: TEQSIYSK, peptide start residue: 326)”, the log2 fold change was -0.397.

As for “UniProt Q8BZR9 (peptide sequence: NVALDRDMMKK, peptide start residue: 108)”, the log2 fold change amounted to 0.639.

Turning to “UniProt Q8BZ32 (peptide sequence: HTFSVLPGDCQQR, peptide start residue: 245)”, the log2 fold change was 0.594.

For the target “UniProt Q8BVG4 (peptide sequence: KSSGLIVSK, peptide start residue: 42)”, the log2 fold change is -0.485.

With “UniProt Q8BYR5 (peptide sequence: EVLVAPGVSQR, peptide start residue: 21)”, the log2 fold change is 0.294.

Turning to “UniProt Q8C1Z8 (peptide sequence: VDAGAEPISK, peptide start residue: 33)”, the log2 fold change was 0.318.

For the target “UniProt Q8C5H8 (peptide sequence: QGNLTLPLNKDLVEK, peptide start residue: 351)”, the log2 fold change was -0.19.

With “UniProt Q8C6I2 (peptide sequence: TDESIETK, peptide start residue: 57)”, the log2 fold change was -0.385.

As to “UniProt Q8BZA9 (peptide sequence: ERMYGVAEGKPLSELR, peptide start residue: 89)”, the log2 fold change was -0.417.
